Results as given in US6960685B2 (TopoTarget UK Limited, priority 2000, dated 2005).

Test system: NHEK-Ad primary human adult keratinocyte line
Assay: Secondary assay: cell proliferation WST-1, NHEK-Ad
Type: cell-based
Details: 48 h, read-out: Cell Proliferation Inhibition WST-1 IC50, NHEK-AD
Description: Compounds with HDAC inhibition activity, as determined using the primary assay, were subsequently evaluated using secondary cell-based assays. The following cell lines were used:
NHEK-Ad—Primary human adult keratinocyte line (Cambrex Corp., East Rutherford, N.J., USA).
Cells were plated in 96-well plates at 3-10×10^3 cells/well in 100 μL of culture medium. The following day, different concentrations of candidate compounds were added and the cells incubated at 37° C. for 48 h. Subsequently, 10 μL/well of WST-1 reagent was added and the cells reincubated for 1 hour. After the incubation time, absorbance was measured.
WST-1 is a tetrazolium salt which is cleaved to formazan dye by cellular enzymes. An expansion in the number of viable cells results in an increase in the overall activity of mitochondrial dehydrogenases in the sample. This augmentation in the enzyme activity leads to an increase in the amount of formazan dye formed, which directly correlates to the number of metabolically active cells in the culture. The formazan dye produced is quantified by a scanning multiwell spectrophotometer by measuring the absorbance of the dye solution at 450 nm wavelength (reference wavelength 690 nm).
IC50 values were calculated using the software package Prism 3.0 (GraphPad Software Inc., San Diego, Calif.), setting top value at 100 and bottom value at 0.

O=C(CCCCCCC(=O)Nc1ccccc1)NO [SAHA, suberoylanilide hydroxamic acid]
IC50: 5.37 µM
